Experimental findings from article PMC6307885 are described below.

Chains of the proteins cited; added tags and fusions are not shown.
UniProt Q9SAD4: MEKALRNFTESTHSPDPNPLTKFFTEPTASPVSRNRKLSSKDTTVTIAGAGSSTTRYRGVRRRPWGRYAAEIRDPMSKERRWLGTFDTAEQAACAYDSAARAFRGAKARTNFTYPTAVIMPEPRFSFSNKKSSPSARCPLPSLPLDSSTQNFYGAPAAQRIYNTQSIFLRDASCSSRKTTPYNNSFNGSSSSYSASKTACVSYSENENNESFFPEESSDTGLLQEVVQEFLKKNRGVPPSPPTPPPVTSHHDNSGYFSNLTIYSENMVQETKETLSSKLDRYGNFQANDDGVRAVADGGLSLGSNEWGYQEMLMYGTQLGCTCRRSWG

No constants are given. Whether binding was seen depends on the method and setting. For some of these results: In cells and extracts the contact can be indirect. Some results given as binding are weak or reduced against the parent protein; the word gives no strength. Tags and fused reporters may be left off the sequences shown.

Test [1] concerns the target DRN-GFP (DORNRÖSCHEN fused to GFP, from pDRN::DRN-GFP plants) (Arabidopsis thaliana) (UniProt Q9SAD4). The test can be described thus: co-IP; anti-GFP on Protein A sepharose beads, blot probed with anti-MYC; extracts of young (younger than P10) and mature (older than P10) leaf axil-enriched tissues of pDRN::DRN-GFP p35S::REV-MYC plants, equal amounts of DRN-GFP; 20 mM HEPES pH 7.5, 40 mM KCl, 1 mM EDTA, 1% Triton X-100.

Test [2] has as its target BD-REV (full-length REV fused to the binding domain of GAL4) (Arabidopsis thaliana) (UniProt Q9SE43). Kind of test: two-hybrid; GAL4 AD and BD fusions in yeast; growth on SD-Leu-Trp-His-Ade plates; 100 mM 3-AT in the selection medium.
Test [3] has the same target. Kind of test: yeast three-hybrid; yeast AH109; AD and BD fusions with conditional expression of a third (bridge) protein; growth and relative β-galactosidase activity before and after induction; 30°C.

B1: REV-MYC (REVOLUTA with MYC tag, from p35S::REV-MYC plants) (protein, UniProt Q9SE43 1-842)
chain: MEMAVANHRERSSDSMNRHLDSSGKYVRYTAEQVEALERVYAECPKPSSLRRQQLIRECSILANIEPKQIKVWFQNRRCRDKQRKEASRLQSVNRKLSAMNKLLMEENDRLQKQVSQLVCENGYMKQQLTTVVNDPSCESVVTTPQHSLRDANSPAGLLSIAEETLAEFLSKATGTAVDWVQMPGMKPGPDSVGIFAISQRCNGVAARACGLVSLEPMKIAEILKDRPSWFRDCRSLEVFTMFPAGNGGTIELVYMQTYAPTTLAPARDFWTLRYTTSLDNGSFVVCERSLSGSGAGPNAASASQFVRAEMLSSGYLIRPCDGGGSIIHIVDHLNLEAWSVPDVLRPLYESSKVVAQKMTISALRYIRQLAQESNGEVVYGLGRQPAVLRTFSQRLSRGFNDAVNGFGDDGWSTMHCDGAEDIIVAINSTKHLNNISNSLSFLGGVLCAKASMLLQNVPPAVLIRFLREHRSEWADFNVDAYSAATLKAGSFAYPGMRPTRFTGSQIIMPLGHTIEHEEMLEVVRLEGHSLAQEDAFMSRDVHLLQICTGIDENAVGACSELIFAPINEMFPDDAPLVPSGFRVIPVDAKTGDVQDLLTANHRTLDLTSSLEVGPSPENASGNSFSSSSSRCILTIAFQFPFENNLQENVAGMACQYVRSVISSVQRVAMAISPSGISPSLGSKLSPGSPEAVTLAQWISQSYSHHLGSELLTIDSLGSDDSVLKLLWDHQDAILCCSLKPQPVFMFANQAGLDMLETTLVALQDITLEKIFDESGRKAICSDFAKLMQQGFACLPSGICVSTMGRHVSYEQAVAWKVFAASEENNNNLHCLAFSFVNWSFV
As for B1, the binding result in test [1] is “binds”.

B2: AD-ZPR3 (LITTLE ZIPPER3 fused to the activation domain of GAL4) (protein, UniProt Q9LXI8 1-67)
chain: MERLNSKLFVENCYIMKENERLRKKAELLNQENQQLLFQLKQKLSKTKNSNNGSNNDNKSSSASGQS
In the case of B2, the binding result in test [2] and in test [3] was “binds” in each case.

B3: ZPR3 expressed as the inducible third protein in the yeast three-hybrid assay (protein, UniProt Q9LXI8 1-67)
chain: MERLNSKLFVENCYIMKENERLRKKAELLNQENQQLLFQLKQKLSKTKNSNNGSNNDNKSSSASGQS
With B3, the binding entry in test [3] was “binds”.
